Consider 1 molecule from patent US20090181009A1 (ARCA BIOPHARMA, published 2009).

Results are given in words; binding and its absence hold for the method and conditions named. Some results given as binding are weak or reduced against the parent protein; the word gives no strength.

This experiment deals with NTB-A extracellular domain fused to a C-terminal tag of V5-His (NTB-A-ECD-V5His) (human). Kind of experiment: SPR (BIAcore), mAb captured by anti-mouse mAb, antigen from 46 nM in 3-fold dilutions, 25 C [D]. A general note: Surface plasmon resonance follows binding to a sensor surface in real time, without labels.

B1: anti-NTB-A monoclonal antibody 994.1 (antibody, mouse IgG2b, V domains shown)
VH: QIQLVQSGPDLKNPGKTVKISCKASGYTFTNFGMNWVKQSPERGLKWMGWINTYNGKPTYADDFKGQFAFSLETSATTAYLQINNLKNEDTAAYFCAKRGGTVDFGYWGQGTTLTVSS
VL: EVVLTQSPTTMAASPGEKITVTCSASSPISSNFLHWYQQKPGFSPKLFIYRTSILASGVPARFSGSGSGTSFSLTIGAMEAEDVAAYYCQQGIYMPLTFGAGTKLELKR
notes: Murine IgG2b from a hybridoma; also called ATCC Deposit No. PTA-7831
Take B1: the binding result was “binds”.
